# Some of the results follow. Many values rest on one well or one pass, so single values are uncertain.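 Imaging used 1,536-well plates; nuclei positive for cleaved PARP by antibody were divided by total DNA-stained nuclei to yield the apoptosis fraction. Doses for screening kept most cells viable, and cell lines differ markedly in resting and induced cleaved-PARP levels.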
# Legend:
# Test in all cases: cleaved PARP positive nuclei fraction relative to DMSO control; melanoma cells; higher = more apoptosis
# Conditions in all cases: library dose: low library concentration; 72 h
# 501Mel = system: 501Mel
# A101D = system: A101D
# A2058 = system: A2058
# A375 = system: A375
# C32 = system: C32
# CBRC008 = system: CBRC008 (line from a melanoma biopsy)
# CBRC014 = system: CBRC014 (line from a melanoma biopsy)
# CBRC016 = system: CBRC016 (line from a melanoma biopsy)
# CBRC017 = system: CBRC017 (line from a melanoma biopsy)
SMILES,cleaved PARP positive nuclei fraction (501Mel) [%],cleaved PARP positive nuclei fraction (A101D) [%],cleaved PARP positive nuclei fraction (A2058) [%],cleaved PARP positive nuclei fraction (A375) [%],cleaved PARP positive nuclei fraction (C32) [%],cleaved PARP positive nuclei fraction (CBRC008) [%],cleaved PARP positive nuclei fraction (CBRC014) [%],cleaved PARP positive nuclei fraction (CBRC016) [%],cleaved PARP positive nuclei fraction (CBRC017) [%]
"Cc1cn(-c2cc(NC(=O)c3ccc(C)c(Nc4nccc(-c5cccnc5)n4)c3)cc(C(F)(F)F)c2)cn1 [nilotinib] + Cn1nnc2c(C(N)=O)ncn2c1=O [temozolomide] (first compound 0.2 µM, partner dose 2 µM)",107,371,140,177,74.2,65.4,114,100,177
"N#CC[C@H](C1CCCC1)n1cc(-c2ncnc3[nH]ccc23)cn1 [ruxolitinib] + COc1ccc(C2=N[C@@H](c3ccc(Cl)cc3)[C@@H](c3ccc(Cl)cc3)N2C(=O)N2CCNC(=O)C2)c(OC(C)C)c1 [Nutlin-3] (first compound 1 µM, partner dose 0.1 µM)",65.6,33.9,118,49.1,74,104,87.9,115,134
"O=C(Nc1cc(C(F)(F)F)cc(C(F)(F)F)c1)c1cc(Cl)ccc1O + Cc1cn(-c2cc(NC(=O)c3ccc(C)c(Nc4nccc(-c5cccnc5)n4)c3)cc(C(F)(F)F)c2)cn1 [nilotinib] (first compound 0.016 µM, partner dose 0.2 µM)",95.9,99.2,127,108,77.3,70.3,108,88.6,101
"Cc1ccc(Nc2nccc(N(C)c3ccc4c(C)n(C)nc4c3)n2)cc1S(N)(=O)=O [Pazopanib] + Nc1cccc2c1CN(C1CCC(=O)NC1=O)C2=O [lenalidomide] (first compound 0.4 µM, partner dose 1 µM)",69.1,95.5,98.4,177,37.1,87.3,123,388,71.9
"Cc1cn(-c2cc(NC(=O)c3ccc(C)c(Nc4nccc(-c5cccnc5)n4)c3)cc(C(F)(F)F)c2)cn1 [nilotinib] + C=C(c1ccc(C(=O)O)cc1)c1cc2c(cc1C)C(C)(C)CCC2(C)C [Bexarotene] (first compound 0.2 µM, partner dose 2 µM)",367,136,52,63.3,296,79.8,99.5,48.6,135

# From the supplement of paper PMC4604168 (melanoma cell lines)
